# Structures can show the parent of a compound that is named as a salt. Where two headings read alike, the source gives them in different places. The campaign covered roughly 3,300 compounds. About 95 (3%) showed an effect of 50% or more. The list shows a part of the results.
# Tested on: HCoV-229E
# Design: species or system Huh-7; HTS, protection from HCoV-229E induced cell death, luminescent cell viability (CellCounting-Lite 2.0), inhibition rate
# Conditions: 24 h post infection, 1 h compound pre-incubation, 10 µM, inhibitor
Compound,229E Inhibition rate [%],"229E Inhibition rate (229E Inhibition rate, 24 h) [%]"
C=C[C@]12CN(C)[C@@H]3[C@H]4CO[C@H](C[C@H]41)[C@]1(C(=O)N(OC)c4ccccc41)[C@@H]32 [Gelsevirine],12.5,
Oc1cc(O)c2c(c1)O[C@H](c1ccc(O)c(O)c1)[C@@H](O)C2 [Catechin],,7.2
CS(C)(=O)=O [Dimethyl sulfone],9.5,
COc1cc2c(c(OC)c1OC)-c1c(cc(OC)c(OC)c1OC)C[C@](C)(O)[C@@H](C)C2 [Schisandrin],5.1,
"O=C(O)c1c(O)cccc1O [2,6-Dihydroxybenzoic acid]",10.3,
O=C(O)[C@H]1O[C@@H](Oc2cc(O)c3c(=O)cc(-c4ccc(O)cc4)oc3c2)[C@H](O)[C@@H](O)[C@@H]1O [Apigenin-7-glucuronide],0,
NCCc1ccc(O)cc1 [Tyramine (hydrochloride)],,9
CC1(C)C=Cc2c(ccc3c2OC[C@@H](c2ccc(O)cc2O)C3)O1 [Glabridin],54.3,
O=c1cc[nH]c(=O)[nH]1 [Uracil],4.8,
C[C@@H]1CC[C@@]2(OC1)O[C@H]1C[C@H]3[C@@H]4CC=C5C[C@@H](O[C@@H]6O[C@H](CO)[C@@H](O[C@@H]7O[C@@H](C)[C@H](O)[C@@H](O)[C@H]7O)[C@H](O)[C@H]6O[C@@H]6O[C@@H](C)[C@H](O)[C@@H](O)[C@H]6O)CC[C@]5(C)[C@H]4CC[C@]3(C)[C@H]1[C@@H]2C [Dioscin],4.4,
COc1cc(-c2coc3cc4c(c(O)c3c2=O)OCO4)cc(O)c1OC [Dichotomitin],53.3,
CCc1cccc(C)c1O [2-Ethyl-6-methylphenol],20.7,
COc1ccc(-c2cc(=O)c3c(OC)c(OC)c(OC)c(OC)c3o2)cc1OC [Nobiletin],24.9,
COc1ccc2cc3[n+](cc2c1OC)CCc1cc2c(cc1-3)OCO2 [Berberine (chloride hydrate)],,34
c1cc2c(c3c1CC1c4cc5c(cc4CCN1C3)OCO5)OCO2 (racemic) [(±)-Stylopine],46.8,
COc1cc2oc(-c3ccc(O)c(O)c3)cc(=O)c2c(O)c1OC [Cirsiliol],27.5,
O=C(O)c1ccc(=O)oc1 [Coumalic acid],13.5,
C/C=C(/C)C(=O)O[C@H]1[C@H](OC(C)=O)[C@]2(CO)[C@H](O)C[C@]3(C)C(=CC[C@@H]4[C@@]5(C)CC[C@H](O[C@@H]6O[C@H](C(=O)O)[C@@H](O[C@@H]7O[C@H](CO)[C@@H](O)[C@H](O)[C@H]7O)[C@H](O)[C@H]6O[C@@H]6O[C@H](CO)[C@@H](O)[C@H](O)[C@H]6O)[C@](C)(CO)[C@@H]5CC[C@]43C)[C@@H]2CC1(C)C [Escin IB],8,
CC(C)=CCc1cc2c(cc1O)O[C@H](c1ccc(O)cc1)CC2=O [Bavachin],16.7,

Compound,229E Inhibition rate [%],"229E Inhibition rate (229E Inhibition rate, 24 h) [%]"
O=Cc1ccccc1C(=O)O [2-Carboxybenzaldehyde],7.1,
CCC[C@@H]1C[C@@H](C(=O)N[C@@H]([C@H]2O[C@H](SC)[C@H](O)[C@@H](O)[C@H]2O)[C@@H](C)O)N(C)C1 [Lincomycin (hydrochloride monohydrate)],16.8,
CCCCCCCCOC(C)=O [Octyl acetate],9.9,
COc1ccc(/C=C/c2cc(O)cc(O[C@@H]3O[C@H](CO)[C@@H](O)[C@H](O)[C@H]3O)c2)cc1O [Rhapontin],18.3,
C=C[C@H]1[C@H](O[C@@H]2O[C@H](CO)[C@@H](O)[C@H](O)[C@H]2O)OC=C(C(=O)OC)[C@H]1CCOC(=O)c1cc(O)c(O)c(O)c1 [Cornuside],20.1,
N[C@@H](Cc1ccc(O)c([N+](=O)[O-])c1)C(=O)O [3-Nitro-L-tyrosine],8,
"O=C(O)c1c[nH]c(=O)[nH]c1=O [2,4-Dihydroxypyrimidine-5-carboxylic Acid]",0,
CC(C)CCC[C@@H](C)[C@H]1CC[C@H]2[C@@H]3CC=C4C[C@@H](OS(=O)(=O)O)CC[C@]4(C)[C@H]3CC[C@]12C [Cholesteryl sulfate (sodium)],7.6,
CC(C)[C@@H]1CC[C@@H](C)C[C@H]1O [Menthol],,33.4
COc1cc(/C=C/C(=O)O[C@H]2[C@H](O)[C@@H](CO)O[C@@]2(CO)O[C@H]2O[C@H](COC(=O)c3ccc(O)cc3)[C@@H](O)[C@H](O)[C@H]2O)cc(OC)c1OC [Tenuifoliside A],0,
CC1(C)CCC2(CO)C(=C3C=CC4C5(C)CCC(OC6OC(COC7OC(CO)C(O)C(O)C7O)C(OC7OC(CO)C(O)C(O)C7O)C(O)C6O)CC5C(C)(CO)CC4(C)C3(C)CC2O)C1 (centres unmarked) [Clinodiside A],8.8,
C[C@H](CO[C@@H]1O[C@H](CO)[C@@H](O)[C@H](O)[C@H]1O)[C@H]1CC[C@@]2(CC[C@]3(C)[C@H](CC[C@@H]4[C@@]5(C)CC[C@H](O[C@@H]6O[C@H](CO)[C@@H](O)[C@H](O)[C@H]6O[C@@H]6O[C@H](CO)[C@@H](O)[C@H](O)[C@H]6O)[C@@](C)(CO)[C@@H]5CC[C@]43C)[C@H]2O)CO1 [Hosenkoside B],10.3,
CC(=O)O[C@@H]1C[C@H](O)[C@@]23CO[C@@H](O)[C@]1(C)[C@@H]2C[C@@H](O)[C@]1(C)[C@@H]3C(=O)[C@H](OC(C)=O)[C@@]2(C)[C@H](c3ccoc3)C[C@H]3O[C@]321 [Toosendanin],23.4,
O=C(O)c1cc(O)c2c(c1)C(=O)c1cccc(O[C@@H]3O[C@H](CO)[C@@H](O)[C@H](O)[C@H]3O)c1C2=O [Rhein 8-Glucoside],17.4,
CC[C@H]1OC(=O)C[C@@H](O)[C@H](C)[C@@H](O[C@@H]2O[C@H](C)[C@@H](O[C@H]3C[C@@](C)(O)[C@@H](O)[C@H](C)O3)[C@H](N(C)C)[C@H]2O)[C@@H](CC=O)C[C@@H](C)C(=O)/C=C/C(C)=C/[C@@H]1CO[C@@H]1O[C@H](C)[C@@H](O)[C@@H](OC)[C@H]1OC [Tylosin (phosphate)],,32.6
O=C(O)c1cccnc1 [Niacin],7.8,
CC1(C)CC[C@]2(C(=O)O)CC[C@]3(C)C(=CC[C@@H]4[C@@]5(C)CC[C@H](O[C@@H]6O[C@H](C(=O)O)[C@@H](O)[C@H](O)[C@H]6O[C@@H]6O[C@H](CO)[C@@H](O)[C@H](O)[C@H]6O)C(C)(C)[C@@H]5CC[C@]43C)[C@@H]2C1 [Zingibroside R1],14.8,
NCCc1c[nH]cn1 [Histamine],,11
"COc1cc(OC)c2c(=O)cc(-c3ccc(O)c(O)c3)oc2c1 [5,7-Dimethoxyluteolin]",12.3,

# Part of the list above in order of formula weight, ascending.
Compound,229E Inhibition rate [%],"229E Inhibition rate (229E Inhibition rate, 24 h) [%]"
NCCc1c[nH]cn1 [Histamine],,11
O=C(O)c1cccnc1 [Niacin],7.8,
O=Cc1ccccc1C(=O)O [2-Carboxybenzaldehyde],7.1,
CC(C)[C@@H]1CC[C@@H](C)C[C@H]1O [Menthol],,33.4
CCCCCCCCOC(C)=O [Octyl acetate],9.9,
N[C@@H](Cc1ccc(O)c([N+](=O)[O-])c1)C(=O)O [3-Nitro-L-tyrosine],8,
O=C(O)c1cc(O)c2c(c1)C(=O)c1cccc(O[C@@H]3O[C@H](CO)[C@@H](O)[C@H](O)[C@H]3O)c1C2=O [Rhein 8-Glucoside],17.4,
C=C[C@H]1[C@H](O[C@@H]2O[C@H](CO)[C@@H](O)[C@H](O)[C@H]2O)OC=C(C(=O)OC)[C@H]1CCOC(=O)c1cc(O)c(O)c(O)c1 [Cornuside],20.1,
CC(=O)O[C@@H]1C[C@H](O)[C@@]23CO[C@@H](O)[C@]1(C)[C@@H]2C[C@@H](O)[C@]1(C)[C@@H]3C(=O)[C@H](OC(C)=O)[C@@]2(C)[C@H](c3ccoc3)C[C@H]3O[C@]321 [Toosendanin],23.4,
COc1cc(/C=C/C(=O)O[C@H]2[C@H](O)[C@@H](CO)O[C@@]2(CO)O[C@H]2O[C@H](COC(=O)c3ccc(O)cc3)[C@@H](O)[C@H](O)[C@H]2O)cc(OC)c1OC [Tenuifoliside A],0,

# The list continues.

Compound,229E Inhibition rate [%],"229E Inhibition rate (229E Inhibition rate, 24 h) [%]"
OC1OC[C@@H](O)[C@@H](O)[C@@H]1O (stereo partly drawn) [D-arabinose],,22.9
O=C1C=CC[C@@H]2[C@H]3CCCN4CCC[C@@H](CN12)[C@@H]34 [Sophocarpine],,19.6
C[C@H](Cc1ccc(O)c(O)c1)[C@@H](C)Cc1ccc(O)c(O)c1 [Nordihydroguaiaretic acid],32.5,
Cc1c(=O)c(=O)c2c3c[nH]c4c(C)c(=O)c(=O)c(c5c[nH]c1c52)c43 [Melanin],10.8,
"COc1ccc(-c2cc(=O)c3c(OC)cc(OC)cc3o2)cc1 [5,7,4'-Trimethoxyflavone]",20.3,
C=C[C@H]1[C@H](O[C@@H]2O[C@H](CO)[C@@H](O)[C@H](O)[C@H]2O)OC=C(C(=O)OC)[C@H]1C[C@@H]1c2cc(O)c(O)cc2CCN1C(C)=O [Ipecoside],0,
C=C[C@H]1CN2CC[C@@]3(C(=O)Nc4ccccc43)[C@@H]2C[C@@H]1/C(=C\OC)C(=O)OC [Isocorynoxeine],41,
COc1cc([C@@H]2c3cc4c(cc3[C@@H]3OC[C@H]2[C@@H]3CO)OCO4)cc(OC)c1OC [Neoanhydropodophyllol],9.1,
CCCCCC(C)C(=O)O (centres unmarked) [2-Methylheptanoic acid],47.5,
CCC(=O)C(=O)O [2-Oxobutanoic acid],38.8,
S=C=NCc1ccccc1 [Benzyl isothiocyanate],15,
COc1cc(/C=C/C=O)ccc1O [Coniferaldehyde],38.5,
CCCCCCCC=O [Octanal],21.4,
CCCCCCC(O)C(=O)O (centres unmarked) [2-Hydroxyoctanoic acid],9.9,
COc1c2ccoc2c(OC[C@H]2OC2(C)C)c2oc(=O)ccc12 [Byakangelicol],17.1,
C=C[C@H]1[C@H](O[C@@H]2O[C@H](CO)[C@@H](O)[C@H](O)[C@H]2OC(=O)c2c(O)cc(O)cc2-c2cccc(O)c2)OC=C2C(=O)OCC[C@H]21 [Amarogentin],15.4,
Nc1ccn([C@@H]2O[C@H](COP(=O)(O)O)[C@@H](O)[C@H]2O)c(=O)n1 [Cytidine 5'-monophosphate],10.5,
C[C@H](CC[C@@H](O[C@@H]1O[C@H](CO[C@@H]2O[C@H](CO)[C@@H](O)[C@H](O)[C@H]2O)[C@@H](O)[C@H](O)[C@H]1O[C@@H]1O[C@H](CO)[C@@H](O)[C@H](O)[C@H]1O)C(C)(C)O)[C@H]1CC[C@@]2(C)[C@@H]3CC=C4[C@@H](CC[C@H](O[C@@H]5O[C@H](CO[C@@H]6O[C@H](CO)[C@@H](O)[C@H](O)[C@H]6O)[C@@H](O)[C@H](O)[C@H]5O)C4(C)C)[C@]3(C)C(=O)C[C@]12C [11-oxo-mogroside V],0,
